From PubChem BioAssay AID493014 (National Center for Advancing Translational Sciences (NCATS), 2011)
This is one part of the list. Shown are side measurements of this screen, not its main read-out; they come without a call. Most of these compounds were active or inconclusive in the main read-out, so they are no random draw. Words in brackets tell the shape of the fitted curve; partial curves, single points and poor fits give uncertain potencies.

Experiment: qHTS Assay to Find Inhibitors of Chronic Active B-Cell Receptor Signaling
Details: ABC-DLBCL IkBa-CBG/CBR reporter, luminescence ratio (green luciferase fused to IkBa over red control in TMD8 lymphoma cells), 4 h
In short: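 Compounds up to 46 uM were incubated four hours with TMD8 cells whose green CBG68 luciferase is fused to IkappaBalpha; red CBR luminescence normalised the signal, and concentration-effect curves were fitted to fusion, red and ratio data.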

[1] = measured here: CBR red luminescence, cell number
[2] = measured here: IkBa-CBG green luminescence

| SMILES | AC50 [1] | AC50 [2] |
| --- | --- | --- |
| O=C(NCCN1CCCC1=O)Nc1ccccc1 | 0.092 µM [rising, full curve, poor fit] |  |
| O=C(N/N=C/c1ccc(OCC(=O)N2CCCCC2)cc1)c1ccccc1 | 20 µM [falling, partial curve, poor fit] |  |
| CNc1nc(N/N=C/c2ccc([N+](=O)[O-])cc2)nc(Nc2ccccc2)n1 | 29.1 µM [falling, single point] | 23.1 µM [rising, partial curve, poor fit] |
| CC(C)c1cc(C(=O)Nc2cccc(Cl)c2)no1 | 12.6 µM [falling, single point] |  |
| CCOC(=O)c1[nH]c(C)c(C(=O)Nc2cc(OC)ccc2OC)c1C | 6.51 µM [falling, partial curve, poor fit] | 23.1 µM [falling, single point] |
| CCc1ccc(Sc2cc(C(=O)NCCCN3CCCC(C)C3)c3ccccc3n2)cc1 (configuration not stated) | 22.4 µM [falling, single point] |  |
| N#Cc1ccc(C23CC4(C2)[C@H](CN(P(=O)(c2ccccc2)c2ccccc2)[C@@H]4c2ccccc2)C3c2ccc(Cl)nc2)cc1 (some centres not stated) | 3.98 µM [falling, partial curve] | 11.2 µM [rising, partial curve] |
| CN(C)CCCNc1ccc(-c2cc(Nc3cccc(Cl)c3)ncn2)cn1 | 14.1 µM [falling, single point] |  |
| CC(=O)Nc1ccc(S(=O)(=O)n2nc(-c3ccc(C)cc3)nc2N)cc1 | 35.5 µM [rising, partial curve, poor fit] |  |
| N#CCCC12CCCCC1=Nc1ccccc12 (configuration not stated) | 0.891 µM [rising, full curve, poor fit] |  |
| NC(=S)NNc1c(F)c(F)c(F)c(F)c1F | 12.6 µM [rising, single point] |  |
| C[C@H]1NC(=O)[C@@]2(C)[C@H](c3ccccc3)[C@H]3COc4ccccc4[C@@H]3N2C1=O | 2.31 µM [falling, partial curve, poor fit] |  |
| CCN1/C(=C/c2ccc3ccccc3[n+]2CCCS(=O)(=O)[O-])C=Cc2cc(C)ccc21 | 0.224 µM [rising, full curve] |  |
| COc1ccc(S(=O)(=O)N2CCCCC2)cc1NC(=O)CSc1ncnc2ccccc12 | 13 µM [falling, single point] |  |
| COC(=O)c1cccc(C(=O)Nc2ccc(F)cc2)n1 | 35.5 µM [falling, single point] |  |
| COc1cc(C(=O)OC2CC3CCC2(C)C3(C)C)ccc1OC(C)=O (configuration not stated) | 12.6 µM [rising, partial curve, poor fit] |  |
| Cc1occc1C(=O)NNC(=S)Nc1ccccc1 | 2.06 µM [falling, full curve] |  |
| Cc1ccc(-c2noc(CSc3nnc(Cc4ccccc4)n3-c3ccc(Cl)cc3)n2)cc1 | 1.84 µM [falling, partial curve, poor fit] |  |
| COc1ccc(NC(=S)N(CCN2CCOCC2)C2CCN(C(C)=O)CC2)cc1Cl | 11.2 µM [rising, partial curve, poor fit] |  |
| Nc1ncnc2c1ncn2C1OC(CO)C(O)C1N (configuration not stated) | 6.31 µM [falling, single point] |  |

| SMILES | AC50 [1] | AC50 [2] |
| --- | --- | --- |
| CCc1ccc(N2CC(C(=O)OCC(=O)Nc3ccccc3C)CC2=O)cc1 (configuration not stated) | 29.1 µM [rising, partial curve, poor fit] | 32.6 µM [falling, partial curve, poor fit] |
| NC(=O)Cn1c(=O)n(CCCC(=O)NC2CCN(Cc3ccccc3)CC2)c(=O)c2ccccc21 | 11.6 µM [rising, partial curve] |  |
| O=C(Cn1cc(C(F)(F)F)ccc1=O)N1CCc2ccccc2C1 | 5.17 µM [rising, full curve, poor fit] |  |
| CCOC(=O)C1=C(C)NC(=O)NC1 | 3.16 µM [falling, single point] |  |
| COc1ccc(-c2csc(NC(=O)Cc3cccc4ccccc34)c2C(=O)O)cc1 | 3.55 µM [rising, full curve, poor fit] |  |
| COc1ccc(-c2csc(-c3cccs3)n2)c(OC)c1 | 4.47 µM [rising, partial curve, poor fit] |  |
| Cc1cc(C)c(NC(=O)c2oc3ccccc3c2COc2ccccc2)c(C)c1 | 2.91 µM [falling, full curve] |  |
| CCS(=O)(=O)C1=NN2C(=N)/C(=C\c3ccc(OC(=O)c4ccco4)c(Br)c3)C(=O)N=C2S1 | 1.78 µM [falling, full curve] |  |
| O=C(NCc1ccccc1CN1CCCC1)c1cccc(N2CCCC2=O)c1 | 29.1 µM [rising, single point] |  |
| CCCC(C(=O)O)N1C(=O)/C(=C/c2cccn2C)SC1=S (configuration not stated) | 25.9 µM [falling, partial curve] | 20.6 µM [rising, partial curve, poor fit] |
| COc1ccc2[nH]c(=O)c(CNc3ccccc3)cc2c1 | 7.08 µM [rising, partial curve, poor fit] |  |
| Fc1ccc(-c2nnc(CN3CCC(c4nc5ccccc5s4)CC3)o2)cc1 | 8.2 µM [rising, partial curve, poor fit] |  |
| COc1ccc(C2=Nc3cc(C)ccc3OC2)cc1 | 0.501 µM [rising, full curve, poor fit] |  |
| O=C(O)c1cccc(NC(=S)N/N=C/c2c[nH]c3ccccc23)c1 | 2.82 µM [falling, partial curve] |  |
| O=c1cc(C(Cl)(Cl)Cl)oc2c1ccc1ccccc12 | 3.55 µM [falling, partial curve, poor fit] |  |
| COCCCNc1nc2nonc2nc1N1CCC(C(C)N2CCOCC2)CC1 (configuration not stated) | 2 µM [rising, full curve, poor fit] |  |
| O=C(c1ccccc1O)N1N=C(c2ccccc2)CC1(O)C(F)(F)F (configuration not stated) | 15.8 µM [falling, single point] |  |
| COc1cccc(NC(=O)C(=O)NCCc2ccc(F)cc2)c1 | 10 µM [falling, partial curve] |  |
| COc1cc(C=O)c(Br)cc1OCc1ccc(C)cc1 | 35.5 µM [rising, single point] |  |
| CCOC(=O)CCCCC(=O)c1[nH]c(=O)[nH]c1CSc1nc(C)cc(=O)[nH]1 | 29.1 µM [rising, single point] |  |

| SMILES | AC50 [1] | AC50 [2] |
| --- | --- | --- |
| N#CCSc1n[nH]c2nc3c(c(=O)n12)C1(CCCC1)Cc1ccccc1-3 | 35.5 µM [falling, single point] |  |
| COC(=O)c1ccc(NC(=O)CSc2nc3ccccc3c(=O)[nH]2)cc1 | 1.3 µM [falling, full curve, poor fit] |  |
| CCN(CC)S(=O)(=O)c1cnccc1N1CCN(c2cccc(Cl)c2)CC1 | 29.1 µM [falling, single point] |  |
| COC(=O)COc1ccc(-c2ccc(F)cc2)cc1C=O | 17.8 µM [rising, single point] |  |
| NS(=O)(=O)c1cc(C(=O)OCC(=O)Nc2ccc(N3CCCCC3)cc2)ccc1Cl | 10 µM [rising, partial curve] |  |
| Cc1cccc(N2N=C(C(=O)Nc3ccc(Cl)c(S(=O)(=O)N4CCOCC4)c3)CCC2=O)c1 | 9.2 µM [rising, partial curve, poor fit] |  |
| COc1ccccc1CNC(=O)CCC1N=C2c3ccccc3N=C(SCC(=O)NCCc3ccccc3)N2C1=O (configuration not stated) | 6.31 µM [falling, single point] |  |
| O=C(Nc1nc(-c2nc3ccccc3s2)cs1)C1COc2ccccc2O1 (configuration not stated) | 18.4 µM [falling, single point] |  |
| Fc1cccc(CSc2ccc(-c3ccc4c(c3)OCO4)nn2)c1 | 2.59 µM [rising, full curve, poor fit] |  |
| COc1ccc(/C=C2\SC(=S)N(C(C)C(=O)NC3C=CS(=O)(=O)C3)C2=O)cc1 (configuration not stated) | 12.6 µM [falling, single point] |  |
| O=C(CCS(=O)(=O)c1ccccc1)N(CCCN1CCOCC1)c1nc2ccccc2s1 | 23.1 µM [falling, single point] |  |
| Cc1nc2ccc(NC(=S)N3CCN(c4ccccn4)CC3)cc2nc1C | 2.91 µM [rising, partial curve, poor fit] |  |
| CCC1=C(OC(=O)N(CC)CC)N2C(=O)OC(=NCCc3c[nH]c4ccccc34)[C@]2(Cc2ccccc2)[C@H]2C1=CC[C@H]1C(=O)N(CC(=O)OC)C(=O)[C@H]12 | 7.94 µM [falling, partial curve, poor fit] |  |
| Cc1ccccc1C1=NC(C(F)(F)F)(C(F)(F)F)c2c(n(C)c(=O)n(C)c2=O)N1 | 11.6 µM [rising, partial curve, poor fit] | 14.6 µM [falling, partial curve, poor fit] |
| Cc1ccc(C)c(NC2=NS(=O)(=O)c3ccccc32)c1 | 13 µM [rising, partial curve, poor fit] |  |
| CCS(=O)c1ccccc1C(=O)OCC(=O)Nc1ccc2ccccc2c1 (configuration not stated) | 9.2 µM [falling, single point] |  |
| Clc1ccc2c(NCc3ccccn3)ccnc2c1 | 11.2 µM [falling, single point] |  |
| Cc1[nH][nH]c(=O)c1C(c1c(C)[nH][nH]c1=O)c1cn(Cc2ccccc2Cl)c2ccccc12 | 0.0517 µM [rising, full curve, poor fit] | 25.9 µM [falling, single point] |
| c1ccc(OCCOc2ncnc3sccc23)cc1 | 6.51 µM [rising, partial curve, poor fit] | 6.51 µM [falling, partial curve, poor fit] |

At a glance, part of the list above:

| SMILES | AC50 [1] | AC50 [2] |
| --- | --- | --- |
| Cc1cccc(N2N=C(C(=O)Nc3ccc(Cl)c(S(=O)(=O)N4CCOCC4)c3)CCC2=O)c1 | 9.2 µM [rising, partial curve, poor fit] |  |
| COc1ccccc1CNC(=O)CCC1N=C2c3ccccc3N=C(SCC(=O)NCCc3ccccc3)N2C1=O (configuration not stated) | 6.31 µM [falling, single point] |  |
| O=C(Nc1nc(-c2nc3ccccc3s2)cs1)C1COc2ccccc2O1 (configuration not stated) | 18.4 µM [falling, single point] |  |
| Fc1cccc(CSc2ccc(-c3ccc4c(c3)OCO4)nn2)c1 | 2.59 µM [rising, full curve, poor fit] |  |
| COc1ccc(/C=C2\SC(=S)N(C(C)C(=O)NC3C=CS(=O)(=O)C3)C2=O)cc1 (configuration not stated) | 12.6 µM [falling, single point] |  |
